Consider three substances from article PMC10110478.

Amino acid sequences for entries named in this document (tags omitted).
UniProt P27361: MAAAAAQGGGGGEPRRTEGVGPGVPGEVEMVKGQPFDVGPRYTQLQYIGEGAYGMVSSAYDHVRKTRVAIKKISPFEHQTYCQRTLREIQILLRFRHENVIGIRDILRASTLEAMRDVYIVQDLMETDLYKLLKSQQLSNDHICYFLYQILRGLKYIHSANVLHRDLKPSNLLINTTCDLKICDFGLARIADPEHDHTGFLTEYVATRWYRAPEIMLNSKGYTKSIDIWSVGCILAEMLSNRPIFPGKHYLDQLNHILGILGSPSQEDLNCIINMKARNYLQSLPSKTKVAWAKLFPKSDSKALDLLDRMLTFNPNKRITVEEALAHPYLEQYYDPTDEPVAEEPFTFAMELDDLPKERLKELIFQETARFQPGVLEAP
UniProt P28482: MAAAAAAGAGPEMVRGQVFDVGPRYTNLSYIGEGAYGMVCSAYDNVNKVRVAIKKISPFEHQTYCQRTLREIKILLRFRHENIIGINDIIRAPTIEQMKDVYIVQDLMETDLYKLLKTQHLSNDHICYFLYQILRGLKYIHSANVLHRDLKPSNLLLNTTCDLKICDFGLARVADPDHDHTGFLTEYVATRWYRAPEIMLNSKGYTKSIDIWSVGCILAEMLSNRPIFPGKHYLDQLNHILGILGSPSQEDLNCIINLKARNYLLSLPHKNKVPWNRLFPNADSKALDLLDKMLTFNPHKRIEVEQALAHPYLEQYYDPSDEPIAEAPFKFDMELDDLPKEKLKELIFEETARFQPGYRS
UniProt Q8N6T7: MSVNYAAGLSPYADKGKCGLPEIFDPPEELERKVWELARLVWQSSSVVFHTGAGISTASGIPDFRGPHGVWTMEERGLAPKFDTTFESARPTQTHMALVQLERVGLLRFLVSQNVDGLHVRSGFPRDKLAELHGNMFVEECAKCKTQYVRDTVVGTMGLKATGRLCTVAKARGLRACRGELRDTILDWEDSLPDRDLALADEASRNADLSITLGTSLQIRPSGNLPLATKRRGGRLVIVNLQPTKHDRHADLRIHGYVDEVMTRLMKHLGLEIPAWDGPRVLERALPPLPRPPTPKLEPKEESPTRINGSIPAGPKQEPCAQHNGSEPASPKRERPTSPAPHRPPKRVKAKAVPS

Experiment [1] deals with extracellular signal-regulated kinase 1 (ERK1) (human (endogenous in A549)) (UniProt P27361). Nature of the experiment: co-IP; lysate of SIRT6-knockdown A549 cells; protein A/G magnetic beads with anti-ERK1/2 antibody or normal rabbit IgG, overnight at 4 °C; lysis buffer 50 mM Tris pH 7.5, 150 mM NaCl, 5 mM EDTA, 5 mM EGTA, 1% NP40; western blot. (In general: A western blot detects proteins with antibodies after separation by electrophoresis.)

Experiment [2] addresses extracellular signal-regulated kinase 2 (ERK2) (human (endogenous in A549)) (UniProt P28482). Described as above.
For experiment [3], the target named is Sirtuin6 (SIRT6), overexpressed from plasmid in A549 cells (UniProt Q8N6T7). Kind of experiment: co-IP; lysate of SIRT6-overexpression A549 cells; protein A/G magnetic beads with anti-SIRT6 antibody or normal rabbit IgG, overnight at 4 °C; lysis buffer 50 mM Tris pH 7.5, 150 mM NaCl, 5 mM EDTA, 5 mM EGTA, 1% NP40; western blot.

These are yes or no findings as the source states them, for the method shown. In cells and extracts the contact can be indirect.

As to “Sirtuin6 (SIRT6), endogenous in A549 cells (from UniProt Q8N6T7 1-355) (enzyme)”, the binding result in experiment [1] and in experiment [2] was “no binding” each time.

Consider “extracellular signal-regulated kinase 1 (ERK1) (from UniProt P27361 1-379) (enzyme)”, for which, in experiment [3], the binding result was “no binding”.

For “extracellular signal-regulated kinase 2 (ERK2) (from UniProt P28482 1-360) (enzyme)”, the binding entry in experiment [3] is listed as “no binding”.
